Results as given in paper PMC4024641.
Results are given in words; binding and its absence hold for the method and conditions named. In cells and extracts the contact can be indirect. Binding calls can cover weak binding; strength is not graded here. Sequences can lack the tags named with a protein.

How the values were obtained:
Iss10-13×myc (S. pombe) [1] = assay: co-IP; α-myc (9E10) on Protein G Dynabeads from S. pombe cell lysate, 4°C 2–3 h; RNase A 100 μg/mL present during binding and washing; blot with α-FLAG-HRP
Iss10-13×myc (S. pombe) [2] = assay: co-IP; α-myc (9E10) on Protein G Dynabeads from S. pombe cell lysate, 4°C 2–3 h, lysis buffer; blot with α-FLAG-HRP; without RNase A

binding (Iss10-13×myc (S. pombe) [1]): binds | binding (Iss10-13×myc (S. pombe) [2]): binds
B1: Red1-3×FLAG (protein, UniProt Q9UTR8 1-712)
chain: MSRSINLDELRKKALESKKKNEEDESNDSDKEDGEISEDDPVIDQSNSVPPMKVPTFPEQIPQLPPFDRFPGTNANFFPFGAPFMLPPALMFGPNTVPFFPQTASSNKTFSKRKRSSENSFNNRNKAKSSETSDSSNTSQSFKENRALKDTATSRPLALSSDTSYQKSEKAKSEKSPFLSTSKNSDANYSKTTNQKEAEKAVSQLFEVGVRFNDFIAEGIEPSVVHTLFLKLGLDSSSASSQGSLTLSADKAARSAKLRKIDSNLSDTHILPGDNGTPTVLPERKNLISLPLLKQDDWLSSSKPFGSSTPNVVIEFDSDDDGDDFSNSKIEQSNLEKPPSNSENGLTMSRSDYLALLRNKEEEIRRMTKLILRLESNKKPYRSPTSAADMKLPSVPVAAVDNKSKTHLDTFEKVVDLSSKADFVEAGPSISSSGASSSAATTNSDTTEQILEAPWLRKTEQIAVVHEEHPAQIKKSEIDILNNLIEKEEGELTKYQTLVKSKTEILTQLYTRKKQLLEQQGKGNVACLPKESDLSMDSITEVSAQADENSSQILSSKTSNAPNGTTETDFEDKVPLVDYISPFYRFKSYRFNQQFVERVPLKYRSLTYSNKIEPMKVFCKYETTGGVCNDDHCEASHFRDIKMTDDEIIQDLSRYIEGNDEIEKESYKSGLDIVMKNTDENTDFVDVATRIVEYHNLWKSERMTIPVAKVSI
